# According to the supplement of paper PMC8728848:
# The other results are listed elsewhere or left out.
# How the values were obtained:
# Assay in all cases: glycan array binding signal (z-score within array); higher = stronger binding
# Settings in all cases: glycan notation: IUPAC condensed, linker removed
# [1] = molecular target: GlcNAc(b1-4)GlcNAc(b1-4)GlcNAc(b1-4)GlcNAc(b1-4)GlcNAc(b1-4)GlcNAc
# Summary of the method: (§1)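 Glycan array data came from 3228 arrays in the Consortium for Functional Glycomics database, and only arrays with an available protein sequence were kept. Glycan names were put into IUPAC-condensed notation, and columns mapping to the same glycan were averaged. The binding signal is a within-array Z-score, averaged across arrays of one protein sequence run at different concentrations or buffers and across linkers. A negative Z-score can be read as non-binding.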
# [2] = molecular target: GlcNAc(b1-4)[GlcNAc(b1-6)]GalNAc
# Summary of the method: as §1
# [3] = molecular target: GlcNAc(b1-6)Gal(b1-4)GlcNAc
# Summary of the method: as §1
# [4] = molecular target: GlcNAc(b1-6)GalNAc
# Summary of the method: as §1
# [5] = molecular target: GlcNAc6S(b1-3)Gal(b1-4)GlcNAc
# Summary of the method: as §1
# [6] = molecular target: Kdn(a2-3)Gal(b1-3)GalNAc
# Summary of the method: as §1
# [7] = molecular target: Kdn(a2-3)Gal(b1-3)GlcNAc
# Summary of the method: as §1
# [8] = molecular target: Kdn(a2-3)Gal(b1-4)Glc
# Summary of the method: as §1
# [9] = molecular target: Kdn(a2-3)Gal(b1-4)GlcNAc
# Summary of the method: as §1
# [10] = molecular target: Kdn(a2-3)Gal(b1-4)[Fuc(a1-3)]GlcNAc
# Summary of the method: as §1
# [11] = molecular target: Kdn(a2-6)Gal(b1-4)GlcNAc
# Summary of the method: as §1
# [12] = molecular target: Man(a1-2)Man(a1-2)Man(a1-3)Man
# Summary of the method: as §1
# [13] = molecular target: Man(a1-2)Man(a1-2)Man(a1-6)[Man(a1-3)]Man
# Summary of the method: as §1
# [14] = molecular target: Man(a1-2)Man(a1-3)Man
# Summary of the method: as §1
# [15] = molecular target: Man(a1-2)Man(a1-3)[Man(a1-2)Man(a1-6)]Man
# Summary of the method: as §1
# [16] = molecular target: Man(a1-2)Man(a1-3)[Man(a1-2)Man(a1-6)]Man(a1-6)[Man(a1-2)Man(a1-2)Man(a1-3)]Man
# Summary of the method: as §1
# [17] = molecular target: Man(a1-2)Man(a1-3)[Man(a1-2)Man(a1-6)]Man(a1-6)[Man(a1-2)Man(a1-2)Man(a1-3)]Man(b1-4)GlcNAc(b1-4)GlcNAc
# Summary of the method: as §1
# [18] = molecular target: Man(a1-2)Man(a1-3)[Man(a1-6)]Man(a1-6)[Man(a1-2)Man(a1-3)]Man(b1-4)GlcNAc(b1-4)GlcNAc
# Summary of the method: as §1
# [19] = molecular target: Man(a1-2)Man(a1-6)[Man(a1-3)]Man(a1-6)[Man(a1-2)Man(a1-2)Man(a1-3)]Man
# Summary of the method: as §1
# [20] = molecular target: Man(a1-2)Man(a1-6)[Man(a1-3)]Man(a1-6)[Man(a1-2)Man(a1-2)Man(a1-3)]Man(b1-4)GlcNAc(b1-4)GlcNAc
# Summary of the method: as §1
# [21] = molecular target: Man(a1-3)[Man(a1-6)]Man
# Summary of the method: as §1
# [22] = molecular target: Man(a1-3)[Man(a1-6)]Man(a1-6)[Man(a1-2)Man(a1-3)]Man(b1-4)GlcNAc(b1-4)GlcNAc
# Summary of the method: as §1
# [23] = molecular target: Man(a1-3)[Man(a1-6)]Man(a1-6)[Man(a1-3)]Man
# Summary of the method: as §1
# [24] = molecular target: Man(a1-3)[Man(a1-6)]Man(a1-6)[Man(a1-3)]Man(b1-4)GlcNAc(b1-4)GlcNAc
# Summary of the method: as §1
# [25] = molecular target: Man(a1-3)[Man(a1-6)]Man(b1-4)GlcNAc(b1-4)GlcNAc
# Summary of the method: as §1
# [26] = molecular target: Man(a1-3)[Man(a1-6)]Man(b1-4)GlcNAc(b1-4)[Fuc(a1-6)]GlcNAc
# Summary of the method: as §1
# [27] = molecular target: Man(a1-6)Man
# Summary of the method: as §1
# [28] = molecular target: Man(b1-4)GlcNAc
# Summary of the method: as §1
# [29] = molecular target: MurNAc(b1-4)GlcNAc
# Summary of the method: as §1
# [30] = molecular target: Neu5Ac(a2-3)Gal
# Summary of the method: as §1
# [31] = molecular target: Neu5Ac(a2-3)Gal(b1-3)GalNAc
# Summary of the method: as §1
# [32] = molecular target: Neu5Ac(a2-3)Gal(b1-3)GalNAc(b1-3)Gal(a1-4)Gal(b1-4)Glc
# Summary of the method: as §1
# [33] = molecular target: Neu5Ac(a2-3)Gal(b1-3)GalNAc(b1-4)[Neu5Ac(a2-3)]Gal(b1-4)Glc
# Summary of the method: as §1
# [34] = molecular target: Neu5Ac(a2-3)Gal(b1-3)GalNAc(b1-4)[Neu5Ac(a2-8)Neu5Ac(a2-3)]Gal(b1-4)Glc
# Summary of the method: as §1
# [35] = molecular target: Neu5Ac(a2-3)Gal(b1-3)GalNAc6S
# Summary of the method: as §1
# [36] = molecular target: Neu5Ac(a2-3)Gal(b1-3)GlcNAc
# Summary of the method: as §1
# [37] = molecular target: Neu5Ac(a2-3)Gal(b1-3)GlcNAc(b1-2)Man
# Summary of the method: as §1
binder,measurement,setting,value
"AntigenI/IIA3VP1 (Streptococcus mutans), C9E3B4 (protein) AANEADYQAKLTAYQTELARVQKANADAKAAYEAAVAANNAANAALTAENTAIKKRNADAKADYEAKLAKYQADLAKYQKDLADYPVKLKAYEDEQASIKAALAELEKHKNEDGNLTEPSAQNLVYDLEPNANLSLTTDGKFLKASAVDDAFSKSTSKAKYDQKILQLDDLDITNLEQSNDVASSMELYGNFGDKAGWSTTVSNNSQVKWGSVLLERGQSATATYTNLQNSYYNGKKISKIVYKYTVDPKSKFQGQKVWLGIFTDPTLGVFASAYTGQVEKNTSIFIKNEFTFYDEDGKPINFDNALLSVASLNREHNSIEMAKDYSGKFVKISGSSIGEKNGMIYATDTLNFKQGEGGSRWTMYKNSQAGSGWDSSDAPNSWYGAGAIKMSGPNNYVTVGATSATNVMPVSDMPVVPGKDNTDGKKPNIWYSLNGKIRAVNVPKVTKEKPTPPVKPTAPTKPTYETEKPLKPAPVAPNYEKEPTPPTRLEHHHHHH",glycan array binding signal (z-score),[1],-0.58
same,glycan array binding signal (z-score),[2],-0.643
same,glycan array binding signal (z-score),[3],-0.001
same,glycan array binding signal (z-score),[4],-0.655
same,glycan array binding signal (z-score),[5],0.77
same,glycan array binding signal (z-score),[6],0.902
same,glycan array binding signal (z-score),[7],0.432
same,glycan array binding signal (z-score),[8],0.138
same,glycan array binding signal (z-score),[9],-0.618
same,glycan array binding signal (z-score),[10],1.13
same,glycan array binding signal (z-score),[11],-1.05
same,glycan array binding signal (z-score),[12],-1.16
same,glycan array binding signal (z-score),[13],1.22
same,glycan array binding signal (z-score),[14],0.52
same,glycan array binding signal (z-score),[15],-0.805
same,glycan array binding signal (z-score),[16],-1.51
same,glycan array binding signal (z-score),[17],-0.709
same,glycan array binding signal (z-score),[18],-0.991
same,glycan array binding signal (z-score),[19],-1.48
same,glycan array binding signal (z-score),[20],0.975
same,glycan array binding signal (z-score),[21],0.13
same,glycan array binding signal (z-score),[22],0.368
same,glycan array binding signal (z-score),[23],-0.42
same,glycan array binding signal (z-score),[24],-0.422
same,glycan array binding signal (z-score),[25],-0.411
same,glycan array binding signal (z-score),[26],-0.693
same,glycan array binding signal (z-score),[27],-0.277
same,glycan array binding signal (z-score),[28],-0.516
same,glycan array binding signal (z-score),[29],0.74
same,glycan array binding signal (z-score),[30],-0.347
same,glycan array binding signal (z-score),[31],-0.764
same,glycan array binding signal (z-score),[32],0.492
same,glycan array binding signal (z-score),[33],-0.369
same,glycan array binding signal (z-score),[34],0.855
same,glycan array binding signal (z-score),[35],-0.385
same,glycan array binding signal (z-score),[36],-0.143
same,glycan array binding signal (z-score),[37],-0.921

# Part of the list above, bar-delimited:
binder | measurement | setting | value
AntigenI/IIA3VP1 (Streptococcus mutans), C9E3B4 (protein) AANEADYQAKLTAYQTELARVQKANADAKAAYEAAVAANNAANAALTAENTAIKKRNADAKADYEAKLAKYQADLAKYQKDLADYPVKLKAYEDEQASIKAALAELEKHKNEDGNLTEPSAQNLVYDLEPNANLSLTTDGKFLKASAVDDAFSKSTSKAKYDQKILQLDDLDITNLEQSNDVASSMELYGNFGDKAGWSTTVSNNSQVKWGSVLLERGQSATATYTNLQNSYYNGKKISKIVYKYTVDPKSKFQGQKVWLGIFTDPTLGVFASAYTGQVEKNTSIFIKNEFTFYDEDGKPINFDNALLSVASLNREHNSIEMAKDYSGKFVKISGSSIGEKNGMIYATDTLNFKQGEGGSRWTMYKNSQAGSGWDSSDAPNSWYGAGAIKMSGPNNYVTVGATSATNVMPVSDMPVVPGKDNTDGKKPNIWYSLNGKIRAVNVPKVTKEKPTPPVKPTAPTKPTYETEKPLKPAPVAPNYEKEPTPPTRLEHHHHHH | glycan array binding signal (z-score) | [5] | 0.77
same | glycan array binding signal (z-score) | [6] | 0.902
